{"source": "paper doi:10.1101/684480", "binders": {"B1": {"name": "V5-tagged SHIP2 (enzyme, UniProt O15357 1-1258)", "chain": "MASACGAPGPGGALGSQAPSWYHRDLSRAAAEELLARAGRDGSFLVRDSESVAGAFALCVLYQKHVHTYRILPDGEDFLAVQTSQGVPVRRFQTLGELIGLYAQPNQGLVCALLLPVEGEREPDPPDDRDASDGEDEKPPLPPRSGSTSISAPTGPSSPLPAPETPTAPAAESAPNGLSTVSHDYLKGSYGLDLEAVRGGASHLPHLTRTLATSCRRLHSEVDKVLSGLEILSKVFDQQSSPMVTRLLQQQNLPQTGEQELESLVLKLSVLKDFLSGIQKKALKALQDMSSTAPPAPQPSTRKAKTIPVQAFEVKLDVTLGDLTKIGKSQKFTLSVDVEGGRLVLLRRQRDSQEDWTTFTHDRIRQLIKSQRVQNKLGVVFEKEKDRTQRKDFIFVSARKREAFCQLLQLMKNKHSKQDEPDMISVFIGTWNMGSVPPPKNVTSWFTSKGLGKTLDEVTVTIPHDIYVFGTQENSVGDREWLDLLRGGLKELTDLDYRPIAMQSLWNIKVAVLVKPEHENRISHVSTSSVKTGIANTLGNKGAVGVSFMFNGTSFGFVNCHLTSGNEKTARRNQNYLDILRLLSLGDRQLNAFDISLRFTHLFWFGDLNYRLDMDIQEILNYISRKEFEPLLRVDQLNLEREKHKVFLRFSEEEISFPPTYRYERGSRDTYAWHKQKPTGVRTNVPSWCDRILWKSYPETHIICNSYGCTDDIVTSDHSPVFGTFEVGVTSQFISKKGLSKTSDQAYIEFESIEAIVKTASRTKFFIEFYSTCLEEYKKSFENDAQSSDNINFLKVQWSSRQLPTLKPILADIEYLQDQHLLLTVKSMDGYESYGECVVALKSMIGSTAQQFLTFLSHRGEETGNIRGSMKVRVPTERLGTRERLYEWISIDKDEAGAKSKAPSVSRGSQEPRSGSRKPAFTEASCPLSRLFEEPEKPPPTGRPPAPPRAAPREEPLTPRLKPEGAPEPEGVAAPPPKNSFNNPAYYVLEGVPHQLLPPEPPSPARAPVPSATKNKVAITVPAPQLGHHRHPRVGEGSSSDEESGGTLPPPDFPPPPLPDSAIFLPPSLDPLPGPVVRGRGGAEARGPPPPKAHPRPPLPPGPSPASTFLGEVASGDDRSCSVLQMAKTLSEVDYAPAGPARSALLPGPLELQPPRGLPSDYGRPLSFPPPRIRESIQEDLAEEAPCLQGGRASGLGEAGMSAWLRAIGLERYEEGLVHNGWDDLEFLSDITEEDLEEAGVQDPAHKRLLLDTLQLSK"}}, "experiment_in_all_cases": "co-IP", "key": {"[1]": {"biological_target": "ΔSH3-SH2-TK-BCR-ABL (human)"}, "BCR-ABL Y177F (human)": {"biological_target": "BCR-ABL Y177F (human)"}, "[2]": {"biological_target": "BCR-ABL with deleted SH3 domain (human)"}, "[3]": {"biological_target": "BCR-ABL with deleted TK domain (human)"}, "[4]": {"biological_target": "BCR-ABL with deleted SH2 domain (human)"}, "[5]": {"biological_target": "BCR-ABL with deleted FABD domain (human)"}, "[6]": {"biological_target": "BCR-ABL with deleted IDR (human)"}, "[7]": {"biological_target": "kinase-dead BCR-ABL (K271H) (human)"}}, "note": "These are yes or no findings as the source states them, for the method shown. Binding seen in cells or lysates may run through a third protein. A result given as binding can be weak or reduced; the word gives no strength. Where a sequence is shown, tags or fusion partners need not be part of it."}
{"binder": "B1", "values": [{"measurement": "binding", "setting": "[1]", "value": "binds"}, {"measurement": "binding", "setting": "BCR-ABL Y177F (human)", "value": "binds"}, {"measurement": "binding", "setting": "[2]", "value": "binds"}, {"measurement": "binding", "setting": "[3]", "value": "binds weakly"}, {"measurement": "binding", "setting": "[4]", "value": "binds"}, {"measurement": "binding", "setting": "[5]", "value": "binds"}, {"measurement": "binding", "setting": "[6]", "value": "binds"}, {"measurement": "binding", "setting": "[7]", "value": "binds"}]}
